Results on one substance are retold here after publication PMC10789764.

Chains of the proteins cited; added tags and fusions are not shown.
UniProt Q92633: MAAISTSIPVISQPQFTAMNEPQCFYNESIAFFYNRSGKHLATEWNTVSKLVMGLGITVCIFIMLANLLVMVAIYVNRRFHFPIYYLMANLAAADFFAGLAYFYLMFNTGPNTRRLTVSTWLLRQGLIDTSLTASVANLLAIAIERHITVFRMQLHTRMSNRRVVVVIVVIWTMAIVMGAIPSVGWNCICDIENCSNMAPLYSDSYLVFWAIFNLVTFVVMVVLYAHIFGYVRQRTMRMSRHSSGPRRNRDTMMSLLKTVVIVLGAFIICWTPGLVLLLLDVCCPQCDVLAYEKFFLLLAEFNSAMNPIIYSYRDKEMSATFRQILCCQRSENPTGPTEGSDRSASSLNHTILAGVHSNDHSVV
UniProt P49407: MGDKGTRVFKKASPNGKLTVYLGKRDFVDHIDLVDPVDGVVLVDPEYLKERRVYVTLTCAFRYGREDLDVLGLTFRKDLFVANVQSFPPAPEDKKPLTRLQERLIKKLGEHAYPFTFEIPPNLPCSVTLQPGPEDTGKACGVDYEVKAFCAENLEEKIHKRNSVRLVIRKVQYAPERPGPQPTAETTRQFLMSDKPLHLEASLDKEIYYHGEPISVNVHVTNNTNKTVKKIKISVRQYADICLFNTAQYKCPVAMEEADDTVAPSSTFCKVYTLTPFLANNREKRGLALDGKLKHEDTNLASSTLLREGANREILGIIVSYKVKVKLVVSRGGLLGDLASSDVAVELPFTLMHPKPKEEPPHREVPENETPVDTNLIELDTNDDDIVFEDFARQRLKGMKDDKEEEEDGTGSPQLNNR

These are yes or no findings as the source states them, for the method shown. In cells and extracts the contact can be indirect. Some results given as binding are weak or reduced against the parent protein; the word gives no strength.

This experiment has as its target lysophosphatidic acid receptor 1 (LPAR1), NanoBiT fusion of the β-arrestin1 recruitment assay (UniProt Q92633). Description: split reporter; NanoBiT-based β-arrestin1 recruitment to LPAR1; dose-response with LPA (reference, Emax = 100%), mianserin, mirtazapine, VPC31143, pAEA, OMPT.

For “β-arrestin1, NanoBiT fusion of the β-arrestin1 recruitment assay (from UniProt P49407 1-418)”, the binding entry is listed as “binds”.
